## Library screen at single concentrations

Measurements from “University of Dundee, Small-Polar-MMV Screening Library” (2021), ChEMBL document CHEMBL3988442.

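Whole-cell growth test on Mycobacterium tuberculosis, read after 4 days in a medium based on cholesterol and the lipid DPPC; the read-out is not stated. Concentration: 500 µM. The record gives no direction; compounds that gave an IC50 in retests scored well above the rest, so higher reads as more growth inhibition. Of about 18,000 compounds tested this way, about 900 (5%) reached 50% or more in at least one test.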

The filed quantity is “Percent Effect” (%). The controls that fix the scale are not given in the record; negative values are as filed. This is an unselected part of the compounds tested.

With O=C1c2ccc(Br)cc2C(=O)N1C1CC1 the screen gave -6.433%.
With O=C(NCc1ccccn1)n1ccnc1 the screen gave -87.56%.
With CC(C)C(=O)CNC(=O)C(O)c1ccccc1 (configuration not stated) the screen gave 3.727%.
With Cc1ccoc1CNC(C)Cn1cncn1 (configuration not stated) the screen gave -1.015%.
With Cc1cc(C2CCCN2)on1 (configuration not stated) the screen gave 11.69%.
With CCN(CC)CC(=O)NCc1ccco1 the screen gave -3.689%.
With Cc1ccsc1C(=O)N(C)C the screen gave -13.37%.
With CCN(CCS(=O)(=O)c1ccccc1)CC(=O)N(C)C the screen gave 94.61%.
With CCC(CC)(CN)C(=O)N1CCOC(C)(C)C1 the screen gave -8.027%.
With Cc1nc2sccn2c1C(=O)NC1C=CS(=O)(=O)C1 (configuration not stated) the screen gave 22.01%.
With CN1CCN(CNC(=O)c2cnccn2)CC1 the screen gave -12.68%.
With O=C(CN1CCCC1)N1CCN(c2ccccc2)CC1 the screen gave 21.51%.
With CCCN1CCC(NC(=O)C2CCC2)CC1 the screen gave 11.81%.
With Cc1nc2n(c1C)CCN(Cc1ncc(Cl)n1C)C2 the screen gave -14.33%.
With Cc1cc(CNC(C)Cn2cccn2)on1 (configuration not stated) the screen gave 1.436%.
With CS(=O)(=O)c1cccc(NC(=O)c2cnccn2)c1 the screen gave -11.58%.
With CC(C)C(=O)N(C)CCC(N)C(C)C (configuration not stated) the screen gave -11.48%.
With Cn1nc(N2CCCC2)c(=O)n(C)c1=O the screen gave -4.621%.
With CNCc1ccc(N)nc1 the screen gave 5.349%.
With CCOc1cccc(CS(=O)(=O)Cc2ccnn2C)n1 the screen gave -10.94%.
With CCOC(=O)c1cc(C(=O)OCC)n(C)n1 the screen gave -5.871%.
With COCCN1C(=O)N[C@H]2CNCC[C@H]21 the screen gave -5.383%.
With CCN1C[C@H](NC(=O)c2ccc(Cl)s2)[C@@H](OC)C1 the screen gave 51.35%.
With Clc1cnn(C2CCNCC2)c1 the screen gave -6.784%.
With COCCOC1CCN(c2cc(N)nc(C)n2)CC1 the screen gave -6.297%.
With CC(=O)Nc1nc(C)c(S(=O)(=O)N2CCCC2)s1 the screen gave -0.2112%.
With O=C(Nc1cnccc1O)C1(c2ccccc2)CC1 the screen gave -0.4161%.
With Cc1ccnc(NC(=O)N2CCNC(=O)C2)c1 the screen gave 16.76%.
With O=C(NCCOc1ccc2c(c1)OCO2)C1CCCO1 (configuration not stated) the screen gave 41.44%.
With CC1(C)CNC(=O)c2nc(CC3(O)CCCC3)[nH]c2C1 the screen gave -0.803%.
With CCN(CCO)S(=O)(=O)Cc1ccccc1Cl the screen gave -9.659%.

For reference, 3 entries once more:

- Cc1ccnc(NC(=O)N2CCNC(=O)C2)c1 : 16.76%
- CCN(CCS(=O)(=O)c1ccccc1)CC(=O)N(C)C : 94.61%
- Cn1nc(N2CCCC2)c(=O)n(C)c1=O : -4.621%